Results are given in words; binding and its absence hold for the method and conditions named. In cells and extracts the contact can be indirect. Some entries that bind do so weakly or less than the wild type. Blank lines part the entries; values can stand above or below the molecule they belong to.
Columns and labels:
[1] = target: T1, biotinylated Peptide A4 (AGR2-binding peptide aptamer, …); experiment: pull-down; biotinylated peptide A4 on streptavidin beads incubated with MCF7 lysates (Tris-HCl pH 8.0, 1% Nonidet P-40); cells pre-treated with DMSO or the cross-linker DSS; eluates immunoblotted for AGR2 and silver stained; only the target purified
T1 sequence (peptide, biotin (end not stated)): HLPTTIYYGPPG

[2] = target: T2, endogenous AGR2 of MCF7 cells (human (endogenous in MCF7)), O95994; experiment: cross-linking; MCF7 cells incubated with the cell-membrane permeable cross-linker DSS for 1 h at 37 °C; 36 kDa band affinity purified, excised and analysed by MALDI-TOF mass spectrometry; settings: remark: other sources report otherwise
T2 chain: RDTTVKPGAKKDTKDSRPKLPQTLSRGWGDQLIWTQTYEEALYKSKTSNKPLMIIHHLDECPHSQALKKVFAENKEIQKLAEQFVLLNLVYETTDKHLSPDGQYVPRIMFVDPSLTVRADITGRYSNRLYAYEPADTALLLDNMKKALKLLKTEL

- binding [1]: binds
Molecule: DSS cross-linked dimer of endogenous AGR2 from MCF7 cells (from UniProt O95994 21-175) (complex)

- binding [1]: binds
Molecule: endogenous AGR2 of MCF7 cells (from UniProt O95994 21-175)

- binding [2]: binds
B1: endogenous AGR2 of MCF7 cells, O95994 21-175 (protein)
chain: T2 chain

— publication PMC5880107, “The Sequence-specific Peptide-binding Activity of the Protein Sulfide Isomerase AGR2 Directs Its Stable Binding to the Oncogenic Receptor EpCAM*^([image sbox.jpg])” (Molecular & Cellular Proteomics : MCP, 2018)
